From doi:10.1101/2025.10.29.685370 come the findings set out here.

By UniProt entry, the sequences of proteins in these tests, tags left out. Where a name states a change or a piece, a line headed by the entry shows the natural chain unless it says otherwise.
UniProt P06537: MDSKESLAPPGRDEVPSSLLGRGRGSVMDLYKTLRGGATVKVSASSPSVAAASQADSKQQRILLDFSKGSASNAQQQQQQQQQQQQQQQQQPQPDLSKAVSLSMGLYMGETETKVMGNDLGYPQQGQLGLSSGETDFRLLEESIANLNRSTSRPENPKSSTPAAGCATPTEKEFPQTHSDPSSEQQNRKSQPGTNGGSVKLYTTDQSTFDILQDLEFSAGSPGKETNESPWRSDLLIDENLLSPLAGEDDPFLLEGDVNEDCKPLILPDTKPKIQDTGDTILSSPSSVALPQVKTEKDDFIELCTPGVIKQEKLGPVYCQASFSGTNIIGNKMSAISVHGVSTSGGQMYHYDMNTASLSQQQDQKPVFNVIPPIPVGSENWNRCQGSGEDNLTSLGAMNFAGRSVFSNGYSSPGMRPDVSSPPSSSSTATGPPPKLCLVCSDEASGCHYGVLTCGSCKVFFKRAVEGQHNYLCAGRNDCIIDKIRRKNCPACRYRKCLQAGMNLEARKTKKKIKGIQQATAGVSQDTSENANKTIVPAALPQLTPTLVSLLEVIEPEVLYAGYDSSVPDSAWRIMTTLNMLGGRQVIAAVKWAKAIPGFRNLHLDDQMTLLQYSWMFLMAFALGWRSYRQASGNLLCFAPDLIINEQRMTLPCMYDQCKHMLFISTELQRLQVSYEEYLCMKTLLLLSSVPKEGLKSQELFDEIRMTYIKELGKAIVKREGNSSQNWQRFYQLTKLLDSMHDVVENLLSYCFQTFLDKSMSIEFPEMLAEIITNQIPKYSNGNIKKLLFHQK
UniProt P49290: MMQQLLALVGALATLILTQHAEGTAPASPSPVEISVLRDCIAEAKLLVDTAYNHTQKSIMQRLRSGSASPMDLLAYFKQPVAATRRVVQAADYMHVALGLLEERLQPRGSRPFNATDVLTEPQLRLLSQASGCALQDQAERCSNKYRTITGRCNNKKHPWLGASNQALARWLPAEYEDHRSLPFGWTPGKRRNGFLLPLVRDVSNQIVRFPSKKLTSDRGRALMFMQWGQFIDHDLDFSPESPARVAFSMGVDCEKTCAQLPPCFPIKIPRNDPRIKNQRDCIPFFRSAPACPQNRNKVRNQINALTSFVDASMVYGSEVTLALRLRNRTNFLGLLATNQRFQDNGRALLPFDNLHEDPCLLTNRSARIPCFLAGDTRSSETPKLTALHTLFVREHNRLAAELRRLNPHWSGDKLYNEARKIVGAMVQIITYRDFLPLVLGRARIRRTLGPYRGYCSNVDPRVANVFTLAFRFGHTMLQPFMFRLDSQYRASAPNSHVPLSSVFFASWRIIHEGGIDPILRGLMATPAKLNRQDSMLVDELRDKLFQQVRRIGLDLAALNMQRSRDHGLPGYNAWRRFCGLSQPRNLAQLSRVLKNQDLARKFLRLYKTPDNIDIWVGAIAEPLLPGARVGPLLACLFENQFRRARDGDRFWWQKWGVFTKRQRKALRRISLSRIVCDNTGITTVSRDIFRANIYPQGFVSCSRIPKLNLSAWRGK
UniProt P25799: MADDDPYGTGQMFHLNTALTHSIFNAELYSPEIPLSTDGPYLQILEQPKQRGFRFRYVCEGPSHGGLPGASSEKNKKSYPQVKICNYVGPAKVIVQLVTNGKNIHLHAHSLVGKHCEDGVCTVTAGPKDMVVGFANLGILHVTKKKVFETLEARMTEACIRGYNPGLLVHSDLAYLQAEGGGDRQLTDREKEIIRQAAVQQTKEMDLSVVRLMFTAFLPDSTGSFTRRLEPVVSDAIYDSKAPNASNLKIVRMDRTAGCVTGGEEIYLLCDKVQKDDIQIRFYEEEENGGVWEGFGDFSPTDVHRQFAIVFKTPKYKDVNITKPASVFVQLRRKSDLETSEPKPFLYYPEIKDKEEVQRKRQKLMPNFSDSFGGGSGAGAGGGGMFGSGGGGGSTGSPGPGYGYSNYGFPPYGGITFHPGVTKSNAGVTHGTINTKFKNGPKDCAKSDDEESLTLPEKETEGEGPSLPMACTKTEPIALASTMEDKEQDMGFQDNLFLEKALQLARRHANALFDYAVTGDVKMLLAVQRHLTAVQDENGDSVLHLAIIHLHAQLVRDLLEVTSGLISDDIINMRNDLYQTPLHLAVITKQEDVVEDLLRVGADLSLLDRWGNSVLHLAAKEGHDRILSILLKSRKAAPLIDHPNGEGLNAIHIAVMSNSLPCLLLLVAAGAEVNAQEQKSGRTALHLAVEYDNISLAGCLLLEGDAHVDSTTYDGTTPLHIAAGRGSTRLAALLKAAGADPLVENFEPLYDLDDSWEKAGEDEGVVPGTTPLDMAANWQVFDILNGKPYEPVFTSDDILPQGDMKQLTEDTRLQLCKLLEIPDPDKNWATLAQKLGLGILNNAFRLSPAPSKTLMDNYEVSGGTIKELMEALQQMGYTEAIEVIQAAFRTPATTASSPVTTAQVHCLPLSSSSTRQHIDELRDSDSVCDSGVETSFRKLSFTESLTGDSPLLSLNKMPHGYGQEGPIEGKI
UniProt Q8BHG1: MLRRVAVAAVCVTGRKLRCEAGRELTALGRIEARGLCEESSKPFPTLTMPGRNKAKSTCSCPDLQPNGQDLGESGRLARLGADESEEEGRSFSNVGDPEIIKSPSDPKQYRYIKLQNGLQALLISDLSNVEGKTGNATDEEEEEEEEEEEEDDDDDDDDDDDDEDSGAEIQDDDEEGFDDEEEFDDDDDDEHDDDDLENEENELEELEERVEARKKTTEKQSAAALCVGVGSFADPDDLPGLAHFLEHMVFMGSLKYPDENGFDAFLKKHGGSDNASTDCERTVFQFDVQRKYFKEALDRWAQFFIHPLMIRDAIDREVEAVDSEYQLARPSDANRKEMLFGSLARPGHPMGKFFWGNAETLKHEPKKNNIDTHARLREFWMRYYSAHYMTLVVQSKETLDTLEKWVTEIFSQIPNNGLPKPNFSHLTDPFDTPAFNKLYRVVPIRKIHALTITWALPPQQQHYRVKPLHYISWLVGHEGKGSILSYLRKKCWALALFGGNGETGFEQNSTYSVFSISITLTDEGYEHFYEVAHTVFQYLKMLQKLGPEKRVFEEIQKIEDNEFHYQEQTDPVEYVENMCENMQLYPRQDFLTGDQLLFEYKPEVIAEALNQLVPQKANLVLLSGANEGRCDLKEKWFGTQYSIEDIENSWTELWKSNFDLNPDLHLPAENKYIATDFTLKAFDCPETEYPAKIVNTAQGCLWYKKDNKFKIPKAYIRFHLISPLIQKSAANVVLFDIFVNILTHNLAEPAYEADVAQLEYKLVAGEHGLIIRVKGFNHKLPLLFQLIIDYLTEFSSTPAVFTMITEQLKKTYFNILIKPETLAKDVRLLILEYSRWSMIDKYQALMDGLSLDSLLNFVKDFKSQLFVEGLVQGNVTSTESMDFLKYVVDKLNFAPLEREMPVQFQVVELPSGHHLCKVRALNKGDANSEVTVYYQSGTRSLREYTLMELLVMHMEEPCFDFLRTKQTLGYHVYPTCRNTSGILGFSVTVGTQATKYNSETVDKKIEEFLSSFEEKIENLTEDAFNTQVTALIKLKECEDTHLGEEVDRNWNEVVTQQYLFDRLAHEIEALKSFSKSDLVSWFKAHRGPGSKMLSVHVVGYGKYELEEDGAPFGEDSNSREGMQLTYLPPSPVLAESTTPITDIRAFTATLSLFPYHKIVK
UniProt Q9JKF1: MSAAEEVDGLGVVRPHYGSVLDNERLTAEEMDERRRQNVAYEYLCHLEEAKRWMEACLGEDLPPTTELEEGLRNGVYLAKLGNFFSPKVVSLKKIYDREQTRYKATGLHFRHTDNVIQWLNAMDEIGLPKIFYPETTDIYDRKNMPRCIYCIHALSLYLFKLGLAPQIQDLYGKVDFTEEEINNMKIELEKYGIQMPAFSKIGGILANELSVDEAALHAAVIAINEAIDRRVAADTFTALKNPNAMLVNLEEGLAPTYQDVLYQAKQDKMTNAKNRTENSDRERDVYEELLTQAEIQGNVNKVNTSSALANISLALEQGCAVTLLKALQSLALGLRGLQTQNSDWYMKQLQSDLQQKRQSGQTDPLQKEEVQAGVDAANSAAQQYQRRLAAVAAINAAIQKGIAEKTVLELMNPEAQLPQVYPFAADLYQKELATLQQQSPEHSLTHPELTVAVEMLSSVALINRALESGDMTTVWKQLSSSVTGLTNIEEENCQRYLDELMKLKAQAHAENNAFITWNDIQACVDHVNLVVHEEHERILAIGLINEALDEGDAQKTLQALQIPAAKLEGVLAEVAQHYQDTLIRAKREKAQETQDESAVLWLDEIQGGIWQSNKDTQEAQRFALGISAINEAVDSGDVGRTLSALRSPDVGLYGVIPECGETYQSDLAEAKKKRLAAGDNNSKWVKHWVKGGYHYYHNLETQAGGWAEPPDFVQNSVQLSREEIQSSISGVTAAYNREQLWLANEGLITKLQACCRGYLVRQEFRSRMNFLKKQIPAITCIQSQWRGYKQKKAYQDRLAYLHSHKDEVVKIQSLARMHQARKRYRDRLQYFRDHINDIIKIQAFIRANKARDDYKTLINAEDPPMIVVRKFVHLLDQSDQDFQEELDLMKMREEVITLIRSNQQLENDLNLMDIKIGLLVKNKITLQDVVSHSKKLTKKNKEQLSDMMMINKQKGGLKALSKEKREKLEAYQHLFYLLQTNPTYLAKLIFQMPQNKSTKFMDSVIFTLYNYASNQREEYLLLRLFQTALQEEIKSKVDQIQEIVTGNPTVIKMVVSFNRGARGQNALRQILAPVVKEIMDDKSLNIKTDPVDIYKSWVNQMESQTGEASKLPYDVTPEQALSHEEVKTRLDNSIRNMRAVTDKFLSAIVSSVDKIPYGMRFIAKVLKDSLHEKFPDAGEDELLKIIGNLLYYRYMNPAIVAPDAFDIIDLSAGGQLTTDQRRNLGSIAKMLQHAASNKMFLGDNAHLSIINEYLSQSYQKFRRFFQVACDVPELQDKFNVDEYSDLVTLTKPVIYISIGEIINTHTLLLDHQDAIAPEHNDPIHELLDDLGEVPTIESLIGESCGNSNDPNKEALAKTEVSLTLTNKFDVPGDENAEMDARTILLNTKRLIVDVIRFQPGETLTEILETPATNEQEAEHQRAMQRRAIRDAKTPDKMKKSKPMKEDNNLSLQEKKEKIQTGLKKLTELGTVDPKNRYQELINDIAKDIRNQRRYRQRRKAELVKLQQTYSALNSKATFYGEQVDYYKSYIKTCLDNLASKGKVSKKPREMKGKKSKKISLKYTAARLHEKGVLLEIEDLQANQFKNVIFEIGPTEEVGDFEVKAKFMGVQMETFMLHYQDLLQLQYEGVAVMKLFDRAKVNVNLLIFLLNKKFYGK

No constants are given. Whether binding was seen depends on the method and setting. Binding seen in cells or lysates may run through a third protein. These calls come from enrichment with a bait or labelling near it, and not all partners need be listed.

The labels stand for the following.
B1: FCGR4 (receptor, UniProt A0A0B4J1G0 21-249)
chain: GLQKAVVNLDPKWVRVLEEDSVTLRCQGTFSPEDNSIKWFHNESLIPHQDANYVIQSARVKDSGMYRCQTALSTISDPVQLEVHMGWLLLQTTKWLFQEGDPIHLRCHSWQNRPVRKVTYLQNGKGKKYFHENSELLIPKATHNDSGSYFCRGLIGHNNKSSASFRISLGDPGSPSMFPPWHQITFCLLIGLLFAIDTVLYFSVRRGLQSPVADYEEPKIQWSKEPQDK
B2: Prohibitin-1 (protein, UniProt P67778 1-272)
chain: MAAKVFESIGKFGLALAVAGGVVNSALYNVDAGHRAVIFDRFRGVQDIVVGEGTHFLIPWVQKPIIFDCRSRPRNVPVITGSKDLQNVNITLRILFRPVASQLPRIYTSIGEDYDERVLPSITTEILKSVVARFDAGELITQRELVSRQVSDDLTERAATFGLILDDVSLTHLTFGKEFTEAVEAKQVAQQEAERARFVVEKAEQQKKAAIISAEGDSKAAELIANSLATAGDGLIELRKLEAAEDIAYQLSRSRNITYLPAGQSVLLQLPQ
B3: RAB5C (protein, UniProt P35278 1-216)
chain: MAGRGGAARPNGPAAGNKICQFKLVLLGESAVGKSSLVLRFVKGQFHEYQESTIGAAFLTQTVCLDDTTVKFEIWDTAGQERYHSLAPMYYRGAQAAIVVYDITNTDTFARAKNWVKELQRQASPNIVIALAGNKADLASKRAVEFQEAQAYADDNSLLFMETSAKTAMNVNEIFMAIAKKLPKNEPQNAAGAPGRTRGVDLQESNPASRSQCCSN

The experiment has as its target glucocorticoid receptor (mouse (endogenous in FACS-isolated myeloid cells)) (UniProt P06537). Put plainly: affinity purification with mass spectrometry.
As to ZDBF2 (from UniProt Q5SS00 1-2493), the binding entry is “binds”.
The entry for TLN1 (from UniProt P26039 1-2541) is “binds”; for EPX (from UniProt P49290) it is “binds”; for TRY10 (from UniProt Q792Z1) (enzyme) it is “binds”.
Then TTR (from UniProt P07309 21-147), with “binds”; and NFKB1 (from UniProt P25799 1-971), with “binds”; and NRDC (from UniProt Q8BHG1), with “binds”.
The entry for IQGAP1 (from UniProt Q9JKF1 1-1657) is “binds”; for B1 it is “binds”; for B2 it is “binds”.
For B3, the binding result is reported as “binds”.
